The nature of this series: general procedure: Fmoc solid-phase peptide synthesis; Fmoc-L-Valine-PEG-PS. To be noted: whole synthesis, scale 0.4 mmol.

Where no end group is shown, it is not given here.

YKIIQQWPHYRRV displayed an isolated yield of 31.4%.

Source of the values: patent US6696559B1 (The Regents of the University of California, priority 1996, dated 2004).
